PubChem BioAssay AID1224826, NIAID, 2016
Purpose: 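Regulators of Tlr4 signalling leading to Tnf-alpha expression in macrophages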 (primary screen). System: RAW264.7 G9 macrophages from mouse bearing reporters for p65 (GFP) and the Tnf promoter (mCherry). Reagent: siRNA pool against mouse genes, 100 nM. Time to read-out: 16 h of LPS stimulation, after 2 days of siRNA transfection. Conditions: bacterial lipopolysaccharide (Salmonella minnesota R595), 10 ng/ml. Detection: 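Imaged Tnf reporter mCherry in nuclei, minus background, normalised per plate to the median and expressed as robust z-scores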. Scale: Tnf reporter robust z-score: higher = stronger Tnf promoter reporter signal after LPS. Hit rule: 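a well counts as active at a score of -1.3 or below (Tlr4 knock-down control median) or above 3 (raised signal); controls and wells holding fewer than 50 cells are excluded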. Meaning of the calls: active = Tnf reporter clearly lowered or raised; inactive = no clear change in Tnf reporter.
Shown is an unselected part of about 17,000 deposited reagents. Over the whole deposit, about 1,110 (6.6%) were called active. 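Active means lowered or raised reporter signal; replicate intensities are raw and not normalised per plate.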 Entries without a mark were called inactive. Further read-outs or replicates are left out here.

The opening 2 entries, ahead of the listing:
Aldh6a1 (GeneID 104776): Tnf reporter robust z-score = -0.29; fewer than 50 cells in well = enough cells in well
Klk1b27 (GeneID 16619): Tnf reporter robust z-score = -0.55; fewer than 50 cells in well = enough cells in well

Main list, from the start:
Aldh6a1 (GeneID 104776): Tnf reporter robust z-score = -0.29; fewer than 50 cells in well = enough cells in well
Klk1b27 (GeneID 16619): Tnf reporter robust z-score = -0.55; fewer than 50 cells in well = enough cells in well
Tnk2 (GeneID 51789): fewer than 50 cells in well = fewer than 50 cells per well; well left out of calls
Or1e22 (GeneID 259024): Tnf reporter robust z-score = -1.2; fewer than 50 cells in well = enough cells in well
Vps37c (GeneID 107305): Tnf reporter robust z-score = -0.69; fewer than 50 cells in well = enough cells in well
Dlg1 (GeneID 13383): Tnf reporter robust z-score = 0.08; fewer than 50 cells in well = enough cells in well
Or2h1 (GeneID 258470): Tnf reporter robust z-score = -1.67 (active); fewer than 50 cells in well = enough cells in well
Ereg (GeneID 13874): Tnf reporter robust z-score = -0.69; fewer than 50 cells in well = enough cells in well
Vmn1r192 (GeneID 252907): Tnf reporter robust z-score = 1.84; fewer than 50 cells in well = enough cells in well
Snrpd1 (GeneID 20641): fewer than 50 cells in well = fewer than 50 cells per well; well left out of calls
Zbtb8a (GeneID 73680): Tnf reporter robust z-score = -0.06; fewer than 50 cells in well = enough cells in well
Ubxn6 (GeneID 66530): Tnf reporter robust z-score = 1.04; fewer than 50 cells in well = enough cells in well
Ccdc38 (GeneID 237465): fewer than 50 cells in well = fewer than 50 cells per well; well left out of calls
Cfi (GeneID 12630): Tnf reporter robust z-score = 1.16; fewer than 50 cells in well = enough cells in well
Commd5 (GeneID 66398): Tnf reporter robust z-score = -0.24; fewer than 50 cells in well = enough cells in well
Oit3 (GeneID 18302): Tnf reporter robust z-score = 0.7; fewer than 50 cells in well = enough cells in well
Gdpd4 (GeneID 233537): Tnf reporter robust z-score = 0.1; fewer than 50 cells in well = enough cells in well
Dhx8 (GeneID 217207): fewer than 50 cells in well = fewer than 50 cells per well; well left out of calls
Myl2 (GeneID 17906): Tnf reporter robust z-score = -0.13; fewer than 50 cells in well = enough cells in well
Stat6 (GeneID 20852): Tnf reporter robust z-score = 0.5; fewer than 50 cells in well = enough cells in well
Wdfy1 (GeneID 69368): Tnf reporter robust z-score = 2.86; fewer than 50 cells in well = enough cells in well
Cast (GeneID 12380): Tnf reporter robust z-score = -0.51; fewer than 50 cells in well = enough cells in well
Ndufaf1 (GeneID 69702): Tnf reporter robust z-score = 0.77; fewer than 50 cells in well = enough cells in well
Far2 (GeneID 330450): Tnf reporter robust z-score = -0.41; fewer than 50 cells in well = enough cells in well
Rragc (GeneID 54170): Tnf reporter robust z-score = -0.03; fewer than 50 cells in well = enough cells in well
Adam2 (GeneID 11495): Tnf reporter robust z-score = -0.72; fewer than 50 cells in well = enough cells in well
Zwint (GeneID 52696): Tnf reporter robust z-score = -0.5; fewer than 50 cells in well = enough cells in well
